Measured values taken from patent publication US20170290821A1 (priority 2014, published 2017).

Tested on: influenza virus A/WSN RG#1-1 strains
Experiment: microbe, parasite or virus in culture
Assay type: cell-based
Settings: unidentified influenza virus, HEK293, 48 h, read-out: IC50 (50% virus replication inhibitory concentration)

Compound: C[C@@H]1CCN(C(=O)CC#N)C[C@@H]1N(C)c1ncnc2[nH]ccc12 [Compound J1, 3-((3R,4R)-4-methyl-3-(methyl(7H-pyrrolo[2,3-d]pyrimidin-4-yl)amino)piperidin-1-yl)-3-oxopropanenitrile]
- IC50: 31.6 µM
